Assay results as given in article PMC12140318.
Results are given in words; binding and its absence hold for the method and conditions named. Binding seen in cells or lysates may run through a third protein. Some binding calls cover weakened binding; strength is not graded here. Tags and fused reporters may be left off the sequences shown.

The chains behind the UniProt entries cited, without tags or fusion partners.
UniProt P45973: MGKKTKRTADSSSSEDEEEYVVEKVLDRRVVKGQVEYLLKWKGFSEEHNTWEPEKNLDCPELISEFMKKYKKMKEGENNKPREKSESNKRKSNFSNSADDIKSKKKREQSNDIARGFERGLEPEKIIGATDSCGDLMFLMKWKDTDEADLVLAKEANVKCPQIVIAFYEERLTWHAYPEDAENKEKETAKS

Molecular target: T1, T113D (Thr→Asp) phosphorylation-mimic mutant S100A9 (pDC315-S100A9T113D-3Flag-SV40-EGFP) (human) (UniProt P06702)
T1 sequence: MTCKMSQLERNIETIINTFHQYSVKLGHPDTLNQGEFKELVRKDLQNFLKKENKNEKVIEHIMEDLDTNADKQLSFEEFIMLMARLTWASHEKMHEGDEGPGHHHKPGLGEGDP
Assay: co-IP; 500 µg protein of hAFs with or without nuclear S100A9 or T113D mutant S100A9 overexpression in IP lysis buffer; Flag antibody-coupled beads, or antibodies against Flag, S100A9, CBX5 or MBD3 with protein A agarose, overnight at 4 °C; pre-immune rabbit IgG as negative control; Western blotting

**Q.** “CBX5 (Chromobox protein homolog 5) (from UniProt P45973 1-191)” was tested. Which binding did it give?
**A.** binds weakly
